{"sequences": {"note": "Amino acid sequences for entries named in this document (tags omitted).", "UniProt P08670, whole entry": "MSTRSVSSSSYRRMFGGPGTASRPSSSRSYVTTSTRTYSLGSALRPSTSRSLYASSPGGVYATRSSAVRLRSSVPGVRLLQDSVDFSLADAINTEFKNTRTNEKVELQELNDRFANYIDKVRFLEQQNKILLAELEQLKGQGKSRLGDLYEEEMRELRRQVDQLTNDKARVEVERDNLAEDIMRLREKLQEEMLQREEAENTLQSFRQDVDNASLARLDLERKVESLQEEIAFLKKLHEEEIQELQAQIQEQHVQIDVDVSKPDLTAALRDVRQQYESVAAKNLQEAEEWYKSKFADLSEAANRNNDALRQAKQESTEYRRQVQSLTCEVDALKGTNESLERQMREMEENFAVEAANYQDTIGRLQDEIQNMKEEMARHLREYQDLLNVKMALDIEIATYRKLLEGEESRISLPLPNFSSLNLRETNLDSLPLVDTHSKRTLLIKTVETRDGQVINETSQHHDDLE"}, "source": "paper PMC9520404", "biological_target": "Vimentin (human) (UniProt P08670)", "assay": "EMSA", "details": "DNA not annealed (equilibrated in 150 mM KCl), 8 uM Vimentin, 500 nM DNA; 5 mM Tris pH 8.4, 150 mM KCl, 1 h at room temperature; 1.5% agarose in 1x TBE + 10 mM KCl, run at 4 C; recombinant protein; residues 1-466; folded or branched DNA", "note": "Negatives hold for the conditions tested. The exact form of at least one protein or probe is not confirmed. The comparison behind a weaker result is the experiment's own reference, which may not be listed here.", "data": [{"sequence": "CGGGCGGGCGAGGGGCCGGGCCGCCGGGGCGGGGCGGGGCCGGGC [TEAD4-full]", "values": [{"measurement": "binding result", "result": "no binding"}]}, {"sequence": "CGGGCGGGCGAGGGGCCGGGTTGTTGGGGCGGGGCGGGGCCGGGC [TEAD4-full-2TT]", "values": [{"measurement": "binding result", "result": "binds more weakly"}]}]}
